From patent EP3556767A1 (Universidade De Santiago De Compostela, priority 2018, dated 2019)
Some peptides are written in HELM: one residue between dots, names in brackets for other building blocks, links after the first $.

Assay: general procedure: Fmoc solid-phase peptide synthesis; Rink Amide ChemMatrix resin (loading 0.5 mmol/g) in protocol 1; Rink Amide resin (loading 0.71 mmol/g) in protocol 2; N-HBTU/DIEA (manual); DIC/Oxyma (automated)
Details: whole synthesis, analytical HPLC, 1H-NMR and mass spectrometry, scale of the general procedure 0.5 mmol manual, 0.05 mmol automated (protocol 1), 0.1 mmol

Substance	final HPLC purity
PEPTIDE1{[ac].R.K.L.R.R.L.L.R.R.L.K.R.L.[am]}|PEPTIDE2{[Biot]}|PEPTIDE3{[Biot]}$PEPTIDE1,PEPTIDE2,3:R3-1:R2|PEPTIDE1,PEPTIDE3,12:R3-1:R2$$$V2.0	100%

Same assay, conditions: whole synthesis, overall, scale of the general procedure 0.5 mmol manual, 0.05 mmol automated (protocol 1), 0.1 mmol

Substance	isolated yield
PEPTIDE1{[Tm].A.R.A.A.A.A.A.A.R.A.A.A.A.A.A.R.[am]}$$$$V2.0	12%
PEPTIDE1{[Tm].A.R.A.L.A.A.L.A.R.A.A.A.A.A.A.R.[am]}$$$$V2.0	10.7%
PEPTIDE1{[Tm].A.R.A.L.A.A.L.A.R.A.L.A.A.A.A.R.[am]}$$$$V2.0	5.3%
PEPTIDE1{[Tm].L.R.A.L.A.A.L.A.R.A.A.A.A.A.A.R.[am]}$$$$V2.0	1.7%
PEPTIDE1{[Tm].L.R.A.L.R.R.L.A.A.A.A.A.A.A.A.A.[am]}$$$$V2.0	6.5%
PEPTIDE1{[ac].L.R.A.L.A.A.L.A.R.A.A.A.A.A.A.R.[am]}$$$$V2.0	1.7%
PEPTIDE1{[ac].R.K.L.R.R.L.L.R.R.L.K.R.L.[am]}|PEPTIDE2{[Biot]}|PEPTIDE3{[Biot]}$PEPTIDE1,PEPTIDE2,3:R3-1:R2|PEPTIDE1,PEPTIDE3,12:R3-1:R2$$$V2.0	11%
TmHexA R AALLAA R AALA3 R	8.7%
TmHexA R ALAALA R ALA4 R	6.4%
